# Measurements taken from patent US20150011423A1, “MEANS AND METHODS FOR ASSESSING KIDNEY TOXICITY” (BASF SE, priority 2011, published 2015).
# Like-named read-outs stand apart in the source and are kept apart here. Marks after values point to notes of the source that are not given here.
# Legend:
# rats [1] = conditions: rat, in vivo
# rats [2] = assay: 28-day repeated dose study in rats with mass spectrometry-based plasma metabolite profiling (GC-MS, LC-MS, SPE-LC-MS); treatment ratios versus control; conditions: for 16-Methylheptadecanoic acid, treatment ratio versus control / Linolenic acid (C18:cis[9,12,15]3), treatment ratio versus control: Table 3d tubular defect
# [3] = female rats, day 14, high dose, Table 3b tubular defect
# [4] = female rats, day 28, high dose, Table 3b tubular defect
# [5] = male rats, day 14, high dose, Table 3c tubular defect
compound,measurement,setting,value
NS(=O)(=O)c1cc(C(=O)O)c(NCc2ccco2)cc1Cl [Furosemide],"Kynurenic acid, treatment ratio versus control",rats [1],2.01 *
same,"Nervonic acid (C24:cis[15]1), treatment ratio versus control",rats [1],1.46 *
same,"Hippuric acid, treatment ratio versus control",rats [2]; [3],0.55^
same,"Indole-3-acetic acid, treatment ratio versus control",rats [2]; [3],0.4 *
same,"Spermidine, treatment ratio versus control",rats [2]; [3],0.77 *
same,"Hippuric acid, treatment ratio versus control","rats [2]; female rats, day 28, high dose, Table 1b diuretic effect",0.47 *
same,"Phosphatidylcholine No 02, treatment ratio versus control","rats [2]; female rats, day 28, high dose, Table 3a tubular defect",0.98^
same,"Hippuric acid, treatment ratio versus control",rats [2]; [4],0.47 *
same,"Indole-3-acetic acid, treatment ratio versus control",rats [2]; [4],0.7 *
same,"Spermidine, treatment ratio versus control",rats [2]; [4],0.75
same,"Nervonic acid (C24:cis[15]1), treatment ratio versus control",rats [2]; [5],2.97 *
same,"Pantothenic acid, treatment ratio versus control",rats [2]; [5],1.19 *
same,"16-Methylheptadecanoic acid, treatment ratio versus control","rats [2]; male rats, day 14, high dose",0.61 *
same,"Linolenic acid (C18:cis[9,12,15]3), treatment ratio versus control","rats [2]; male rats, day 14, high dose",0.85
same,"Kynurenic acid, treatment ratio versus control","rats [2]; male rats, day 28, high dose, Table 3c tubular defect",1.44
same,"16-Methylheptadecanoic acid, treatment ratio versus control","rats [2]; male rats, day 28, high dose",0.72 *
same,"Linolenic acid (C18:cis[9,12,15]3), treatment ratio versus control","rats [2]; male rats, day 28, high dose",0.68 *
